From patent US20070098761A1, “Processed fat composition for preventing/ameliorating lifestyle-related diseases” (priority 2003, published 2007)
Some results were stated once for a whole list of compounds, not compound by compound.

Test: Shelf stability test (accelerating test at 80° C.)
Type: physicochemical
Conditions: in the MCT solution
Procedure: A shelf stability test of glabrene, glabridin, glabrol and 4′-O-methylglabridin in the above MCT solution was carried out as an accelerating test at 80° C. The MCT solution was kept at 80° C. in a water bath, and the contents of glabrene, glabridin, glabrol and 4′-O-methylglabridin were determined after storage for 1, 3 and 5 hours respectively. The shelf stability was expressed in terms of the ratio of the content after storage to the content before storage, assuming that the content of each compound before storage was 100%.
A shelf stability test of the hydrophobic licorice extract in Comparative Example 1 was carried out in an analogous manner.
A shelf stability test of the ethanol solution in Comparative Example 2 was carried out in an analogous manner.

In the case of `CC1(C)C=Cc2c(ccc3c2OC[C@@H](c2ccc(O)cc2O)C3)O1` [Compound 2, glabridin], the “Stability during storage (in words)” value is reported as “stable”.
